± gives the uncertainty stated by the source. This is one part of the list. Part of the spread comes from offsets between plates or batches.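 At 6 dpf, larvae had a heat-shock-induced fluorescent stripe placed in rod outer segments; shedding distance, from stripe to outer segment tip, was measured in confocal stacks, roughly three fish per compound. Controls received 0.2% DMSO vehicle; compounds were flagged for ≥20% change versus same-week control and p < 0.001 (Dunnett test, mixed-effects models).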
test system: Danio rerio larva rod photoreceptor outer segment; test: rod outer segment growth distance Dg, difference from same-week DMSO control mean; higher = more outer segment growth; settings: 20 µM; treatment time: 4 days (6-10 dpf)

SMILES	rod outer segment growth distance Dg [um]
Cc1coc2c1C(=O)C(=O)c1c-2ccc2c1CCCC2(C)C [Tanshinone IIA]	-0.45 ± 0.18
C[C@@H]1C(=O)O[C@H]2C[C@@]34[C@H]5C[C@@H](C(C)(C)C)[C@]36[C@@H](OC(=O)[C@@H]6O)O[C@@]4(C(=O)O5)[C@]21O [Ginkgolide A]	-0.71 ± 0.24
Cc1cnc(-c2cc(N3CCN(C(=O)CCS(C)(=O)=O)CC3)ncc2Cl)c(C)c1	0.4 ± 0.16
Oc1ccc(OCc2ccccc2)cc1 [Monobenzone]	-1.06 ± 0.84
CC(/C=C1\SC(=S)N(CC(=O)O)C1=O)=C\c1ccccc1 [Epalrestat]	0.55 ± 0.25
Cc1noc(-c2ccc(CSCCC(=O)O)cc2)c1NC(=O)OC(C)c1ccccc1Cl (centres undefined)	0.29 ± 0.17
COc1cc(Nc2nc3ccccc3nc2NS(=O)(=O)c2ccc(NC(=O)c3ccc(C)c(OC)c3)cc2)cc(OC)c1	-1.04 ± 0.21
c1ccc2[nH]c(-c3cscn3)nc2c1 [Thiabendazole]	-0.43 ± 0.22
Cc1coc2c1C(=O)C(=O)c1c-2ccc2c(C)cccc12 [Tanshinone I]	-0.59 ± 0.21
O=c1ccn([C@@H]2O[C@H](CO)[C@@H](O)[C@H]2O)c(=O)[nH]1 [Uridine]	0.27 ± 0.25
COc1ccc([C@]2(C#N)CC[C@@H](C(=O)O)CC2)cc1OC1CCCC1 [Cilomilast]	-0.26 ± 0.19
C[C@]1(c2nc3c(C(N)=O)cccc3[nH]2)CCCN1 [Veliparib (ABT-888)]	-0.15 ± 0.23
O=C(Nc1cccc2c(=O)cc(-c3nnn[nH]3)oc12)c1ccc(OCCCCc2ccccc2)cc1 [Pranlukast]	-0.66 ± 0.16
Cn1cc(-c2ccc3nnc(Sc4ccc5ncccc5c4)n3n2)cn1	-0.57 ± 0.22

2 records drawn at random from the list so far:
SMILES	rod outer segment growth distance Dg [um]
C[C@]1(c2nc3c(C(N)=O)cccc3[nH]2)CCCN1 [Veliparib (ABT-888)]	-0.15 ± 0.23
Cc1coc2c1C(=O)C(=O)c1c-2ccc2c(C)cccc12 [Tanshinone I]	-0.59 ± 0.21
